From patent publication US20110091386A1 (GENE TECHNO SCIENCE, published 2011)
These are yes or no findings as the source states them, for the method shown. Some results given as binding are weak or reduced against the parent protein; the word gives no strength.

Protein sequences, listed by entry. Tags and fused reporters are not part of them. Residues count along the entry.
UniProt P02751, residues 32-2477: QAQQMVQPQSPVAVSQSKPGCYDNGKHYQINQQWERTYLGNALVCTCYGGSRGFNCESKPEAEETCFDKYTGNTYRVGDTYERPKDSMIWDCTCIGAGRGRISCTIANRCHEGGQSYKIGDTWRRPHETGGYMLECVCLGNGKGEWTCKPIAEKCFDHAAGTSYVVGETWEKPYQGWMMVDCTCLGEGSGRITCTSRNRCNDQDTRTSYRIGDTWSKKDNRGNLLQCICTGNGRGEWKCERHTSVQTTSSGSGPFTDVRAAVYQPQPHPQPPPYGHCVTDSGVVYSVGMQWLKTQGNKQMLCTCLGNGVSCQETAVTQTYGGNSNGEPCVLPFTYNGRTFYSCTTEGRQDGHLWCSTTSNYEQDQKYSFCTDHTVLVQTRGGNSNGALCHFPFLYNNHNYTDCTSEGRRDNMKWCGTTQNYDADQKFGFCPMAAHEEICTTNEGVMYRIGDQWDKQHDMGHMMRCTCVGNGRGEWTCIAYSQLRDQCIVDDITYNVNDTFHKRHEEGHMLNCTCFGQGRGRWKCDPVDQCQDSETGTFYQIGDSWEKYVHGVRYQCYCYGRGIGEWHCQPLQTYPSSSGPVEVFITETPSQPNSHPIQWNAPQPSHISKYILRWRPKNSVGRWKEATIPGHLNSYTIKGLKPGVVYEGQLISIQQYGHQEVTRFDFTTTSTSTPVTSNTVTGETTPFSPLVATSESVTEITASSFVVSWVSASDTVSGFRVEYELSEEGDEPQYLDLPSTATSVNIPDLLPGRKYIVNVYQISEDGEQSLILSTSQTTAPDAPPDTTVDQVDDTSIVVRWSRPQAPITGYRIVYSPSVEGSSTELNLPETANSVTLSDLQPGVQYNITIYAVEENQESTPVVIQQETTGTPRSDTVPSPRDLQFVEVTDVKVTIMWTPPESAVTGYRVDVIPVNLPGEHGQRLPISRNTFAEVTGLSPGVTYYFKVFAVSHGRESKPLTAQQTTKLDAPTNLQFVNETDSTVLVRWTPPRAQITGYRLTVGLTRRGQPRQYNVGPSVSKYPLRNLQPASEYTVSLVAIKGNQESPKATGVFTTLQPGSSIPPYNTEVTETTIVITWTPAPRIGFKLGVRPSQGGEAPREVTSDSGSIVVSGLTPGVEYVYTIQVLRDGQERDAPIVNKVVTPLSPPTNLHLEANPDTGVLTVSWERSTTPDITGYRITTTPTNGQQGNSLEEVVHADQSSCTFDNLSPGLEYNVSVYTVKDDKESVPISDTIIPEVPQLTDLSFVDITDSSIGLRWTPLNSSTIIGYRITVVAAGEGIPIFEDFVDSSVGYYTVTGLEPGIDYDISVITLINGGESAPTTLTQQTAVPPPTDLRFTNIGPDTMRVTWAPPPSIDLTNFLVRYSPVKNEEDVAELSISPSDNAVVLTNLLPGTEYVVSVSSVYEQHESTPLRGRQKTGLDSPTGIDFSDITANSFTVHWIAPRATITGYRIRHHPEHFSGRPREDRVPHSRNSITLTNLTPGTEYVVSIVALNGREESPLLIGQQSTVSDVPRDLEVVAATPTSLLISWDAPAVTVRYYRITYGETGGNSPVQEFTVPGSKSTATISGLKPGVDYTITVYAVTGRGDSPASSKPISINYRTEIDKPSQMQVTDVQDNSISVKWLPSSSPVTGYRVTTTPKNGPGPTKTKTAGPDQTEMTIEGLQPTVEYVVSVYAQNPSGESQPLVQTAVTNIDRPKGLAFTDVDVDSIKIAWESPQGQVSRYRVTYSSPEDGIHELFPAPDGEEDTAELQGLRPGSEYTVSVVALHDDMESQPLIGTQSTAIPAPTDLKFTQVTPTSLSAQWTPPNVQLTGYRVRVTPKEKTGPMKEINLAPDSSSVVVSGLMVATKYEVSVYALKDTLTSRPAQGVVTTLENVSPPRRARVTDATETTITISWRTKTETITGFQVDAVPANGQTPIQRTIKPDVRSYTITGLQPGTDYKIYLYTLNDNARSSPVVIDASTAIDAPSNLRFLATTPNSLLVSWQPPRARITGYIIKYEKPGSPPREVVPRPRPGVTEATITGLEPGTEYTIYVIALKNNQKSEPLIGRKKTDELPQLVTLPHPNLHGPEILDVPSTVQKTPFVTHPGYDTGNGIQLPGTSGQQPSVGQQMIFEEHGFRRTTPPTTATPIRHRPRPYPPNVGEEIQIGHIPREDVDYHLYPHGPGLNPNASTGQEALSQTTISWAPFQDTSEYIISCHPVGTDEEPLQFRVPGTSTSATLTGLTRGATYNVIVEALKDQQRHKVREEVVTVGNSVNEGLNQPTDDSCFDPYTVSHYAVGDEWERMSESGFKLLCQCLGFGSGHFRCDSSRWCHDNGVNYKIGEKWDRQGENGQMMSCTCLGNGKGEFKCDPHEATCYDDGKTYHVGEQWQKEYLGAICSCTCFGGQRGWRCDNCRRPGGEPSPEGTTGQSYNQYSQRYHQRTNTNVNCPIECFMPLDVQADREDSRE

Target: human fibronectin (human) (UniProt P02751)
Assay: ELISA, protein coated at 5 ug/ml, HRP anti-murine IgG, A490

B1: mouse anti-RGD monoclonal antibody 33E10 (FERM BP-10440) (antibody, mouse IgG1, V domains shown)
VH: EVKLVESGGGLVQPGGSLSLSCAASGFTFTDYYMIWVRQPPGKALEWLGFIRNKANGYTTEYSASVKGRFTISRDNSQSILYLQMNALRAEDSATYYCARGAYWGQGTLVTVSA
VL: DVLMTQTPLSLPVSLGDQASISCRSSQSIVHSNGNTYLEWYLQKPGQSPKLLIYRVSNRFSGVPDRFSGSGSGTDFTLKISRVEAEDLGVYYCFQGSFVPWTFGGGTKLEIK
notes: Mouse IgG1 from hybridoma, purified on an antigen peptide column
binding: binds
